PubChem BioAssay AID1487 (National Center for Advancing Translational Sciences (NCATS), 2009)
The list shows a part of the results. The main result of the screen is listed elsewhere. These columns were measured beside it and carry no call. Compounds called inactive in the main read-out are mostly missing here. The note in brackets gives the kind of curve behind each potency; many fits are weak.

Assay: qHTS Assay for Modulators of Lamin A Splicing
Settings: HeLa LMNA splicing GFP/RFP minigene ratio, 48 h
Procedure, shortened: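 S3 HeLa stable clones carrying a lamin A-EGFP splicing minigene plus DsRed2 were seeded at 600 cells/well in Opti-MEM with 2% FBS, pin-dosed and incubated 48 h at 37°C. Acumen cytometry (488 nm) gave the GFP/RFP total-intensity ratio.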

[1] = measured here: RFP viability control channel
[2] = measured here: GFP splicing reporter channel

## CN(Cc1cnn(C)c1)C(=O)c1sc2cccc(Cl)c2c1Cl
[1]
  AC50: 12.6 µM [rising, single point]

## CC1CCc2nc3ncn(CC(=O)Nc4cccc(C#N)c4)c(=O)c3cc2C1 (stereo not drawn)
[2]
  AC50: 0.708 µM [rising, full curve, poor fit]
[1]
  AC50: 3.98 µM [rising, partial curve]

## CC(NC(=O)Nc1ccc(Br)cc1)C(C)(C)C (stereo not drawn)
[1]
  AC50: 35.5 µM [rising, single point]

## CCn1cc(C(=O)O)c(=O)c2cc(F)c(N3CCN(C)CC3)cc21
[2]
  AC50: 1 µM [falling, partial curve, poor fit]

## Cc1ccc(-c2ccc(=O)n(C(C)C(=O)Nc3ccccc3Cl)n2)cc1C (stereo not drawn)
[1]
  AC50: 3.55 µM [rising, partial curve, poor fit]

## Cc1ccc(S(=O)(=O)N(C)c2ccc(OCC(=O)Nc3nc(-c4ccccc4)cs3)cc2)cc1
[2]
  AC50: 10 µM [rising, partial curve, poor fit]
[1]
  AC50: 11.2 µM [rising, partial curve]

## COc1cc(Cl)c(C)cc1NC(=O)CN1c2ccccc2S(=O)(=O)c2ccccc21
[2]
  AC50: 1.58 µM [rising, partial curve, poor fit]

## COc1cc(OC)cc(C(=O)NNC(=S)NCc2ccco2)c1
[2]
  AC50: 2 µM [falling, full curve, poor fit]
[1]
  AC50: 2.51 µM [falling, full curve, poor fit]

## Cc1occc1-c1nnc(SCC(=O)NCCc2ccccc2)n1Cc1ccccc1
[2]
  AC50: 4.47 µM [rising, full curve, poor fit]

## Cc1cccnc1N(C(=O)Nc1cccc(Cl)c1)C1=NCC(C)(C)S1
[1]
  AC50: 1.41 µM [falling, partial curve, poor fit]

## Cc1cccc(-n2ncc(C(=O)N3CCC(C)CC3)c2C2CCN(C(=O)OC(C)(C)C)CC2)c1
[2]
  AC50: 0.00316 µM [falling, full curve, poor fit]

## CCc1ccccc1N(CC(=O)N1CCN(c2ccc(F)cc2)CC1)S(C)(=O)=O
[2]
  AC50: 15.8 µM [rising, partial curve, poor fit]
[1]
  AC50: 20 µM [rising, single point]

## O=C(Nc1ccc(C(=O)O)cc1)/C(=C\c1ccco1)NC(=O)c1ccccc1
[1]
  AC50: 0.178 µM [falling, full curve]

## Cc1c(O)ccc(C(=O)CN2CCN(Cc3ccc4c(c3)OCO4)CC2)c1O
[2]
  AC50: 11.2 µM [rising, partial curve]
[1]
  AC50: 14.1 µM [rising, partial curve]

## O=C1/C(=C/c2cccnc2)SC(=S)N1C1CCS(=O)(=O)C1 (stereo not drawn)
[2]
  AC50: 25.1 µM [falling, single point]

## N#C/C(=C\N1CCN(Cc2ccc3c(c2)OCO3)CC1)c1nc2ccccc2s1
[1]
  AC50: 35.5 µM [rising, single point]

## O=[N+]([O-])c1cc2c(cc1/C=N/NS(=O)(=O)c1ccc(Br)cc1)OCO2
[1]
  AC50: 3.16 µM [rising, full curve, poor fit]

## COC(=O)CNC(c1ccccc1)c1cc(Br)ccc1NC(=O)CCN1CCOCC1 (stereo not drawn)
[2]
  AC50: 15.8 µM [falling, partial curve]
[1]
  AC50: 3.16 µM [falling, partial curve]

## CCOc1ccc2c(c1)c(N=O)c(O)n2C
[1]
  AC50: 15.8 µM [rising, partial curve, poor fit]

## CC(C)CC(=O)NC(=S)N1CCN(c2ccc([N+](=O)[O-])cc2Cl)CC1
[2]
  AC50: 11.2 µM [rising, single point]
[1]
  AC50: 17.8 µM [rising, single point]

## Cc1ccc(S(=O)(=O)N(CC(=O)NC2CCCC2)c2cccc(C)c2)cc1
[2]
  AC50: 35.5 µM [rising, single point]

## Cc1nc2ccccn2c1C(=O)/C=C/c1ccc(F)cc1
[2]
  AC50: 7.08 µM [falling, partial curve]
[1]
  AC50: 17.8 µM [falling, partial curve]

## CN(CC(=O)Nc1nc2ccc(F)cc2s1)S(=O)(=O)c1ccc(Cl)cc1
[1]
  AC50: 31.6 µM [rising, single point]

## COc1cccc(Nc2ncc3nc(-c4ccccc4)c(=O)n(C)c3n2)c1
[1]
  AC50: 14.1 µM [falling, partial curve, poor fit]

## C/C(=N\NC(=O)c1cccc(Br)c1)c1cccc(NC(=O)c2ccc(C)o2)c1
[2]
  AC50: 0.355 µM [rising, partial curve, poor fit]
[1]
  AC50: 0.891 µM [rising, full curve, poor fit]

## OC(CNc1ccccc1)Cn1ccc2ccccc21 (stereo not drawn)
[2]
  AC50: 0.447 µM [falling, partial curve, poor fit]
[1]
  AC50: 2 µM [falling, partial curve, poor fit]

## COc1ccc(C(=O)Nc2ccc(S(=O)(=O)NC(C)C)cc2)cc1
[1]
  AC50: 5.01 µM [rising, partial curve, poor fit]

## COc1ccc(Nc2oc(COc3ccccc3OC)nc2C#N)cc1
[1]
  AC50: 0.0708 µM [rising, full curve, poor fit]

## C/C(=C\CO)CCC(C)CCCC(C)CCCC(C)C (stereo not drawn)
[2]
  AC50: 14.1 µM [rising, single point]

## CSc1nc(C)cc(SCC(=O)N/N=C/c2ccccc2)n1
[2]
  AC50: 35.5 µM [rising, single point]
[1]
  AC50: 31.6 µM [rising, single point]

## COc1ccc(C2CC(=O)c3sc(NC(C)=O)nc3C2)cc1 (stereo not drawn)
[2]
  AC50: 10 µM [rising, partial curve, poor fit]
[1]
  AC50: 11.2 µM [rising, partial curve, poor fit]

## Cc1cc(C)c(NC(=O)CCn2nnc3ccccc32)c(C)c1
[2]
  AC50: 1.41 µM [rising, partial curve]

## CCn1c(/C=N/c2nc3ccccc3n2C)nc2ccccc21
[2]
  AC50: 35.5 µM [rising, single point]

## Cn1c(=O)cc(SCC(=O)Nc2cccnc2)c2ccccc21
[2]
  AC50: 35.5 µM [rising, single point]
[1]
  AC50: 35.5 µM [rising, single point]

## CCC(=O)c1cc(F)c(N2CCN(C(=O)Cc3ccccc3)CC2)cc1C
[1]
  AC50: 10 µM [rising, partial curve]
